Each structure is given as a SMILES string.

In general, IC50 refers to the concentration that inhibits the measured activity by half.

Assay [1] has as its system HL60. In words: Antiproliferative assay (Alamar blue, 72 h), HL60. It counts as cell-based. The settings on record: HL60 cells, three independent experiments, SD < 10%, read-out: Antiproliferative effect IC50, HL60. On the procedure: (§1) The cells were cultured in IMDM (Gibco) medium with 20% FBS (Lonsera), 100 U/mL penicillin, and 100 µg/mL streptomycin (Solarbio). All cells were maintained at 37 °C in a humidified atmosphere of 5% CO2 in air. Briefly, 100 µL cell suspension or completed medium was plated into a 96-well plate. Compounds were added and incubated for 72 h. Then, 22 µL Alamar blue solution (1 mM) was pipetted into each well of a 96-well plate, and the plate was incubated for an additional 5~6 h. The absorbance (OD) was read at 530/590 nm. Data were normalized to vehicle groups (DMSO) and represented as the means of three independent measurements with standard errors of <20%. The IC50 values were calculated using Prism 5.0.
(In general: Resazurin is reduced to fluorescent resorufin, in cell work by metabolically active cells.)

Assay [2] concerns HCT116. The assay is described as follows: Antiproliferative assay (Alamar blue, 72 h), HCT116. It is filed as cell-based. As to conditions: HCT116 cells, three independent experiments, SD < 10%, read-out: Antiproliferative effect IC50, HCT116. As for the experimental part:
as §1

In the case of `O=C(CCCCCCC(=O)Nc1ccccc1)NO` [SAHA, reference compound], the IC50 in assay [1] is 0.87 µM; in assay [2], 4.5 µM.

These data come from paper PMC10648541, “Design, Synthesis, and Antiproliferative Activity of Selective Histone Deacetylases 6 Inhibitors Containing a Tetrahydropyridopyrimidine Scaffold” (Molecules, 2023).
